Assay results as given in PubChem BioAssay AID1508615 (Milbrandt Lab, Department of Genetics, Washington …, 2020).
The whole screen tested about 1,600 compounds, of which about 20 (1%) were called active.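 The calls were made as follows: active = ratio of uncleaved NAD to its breakdown product ADP-ribose above 4, meaning the enzyme was inhibited; inactive = the rest.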 This is one part of the list.

Chains of the proteins cited; added tags and fusions are not shown. Lines headed by an entry give the natural chain unless they say otherwise; changes in a name come on top.
UniProt Q6SZW1: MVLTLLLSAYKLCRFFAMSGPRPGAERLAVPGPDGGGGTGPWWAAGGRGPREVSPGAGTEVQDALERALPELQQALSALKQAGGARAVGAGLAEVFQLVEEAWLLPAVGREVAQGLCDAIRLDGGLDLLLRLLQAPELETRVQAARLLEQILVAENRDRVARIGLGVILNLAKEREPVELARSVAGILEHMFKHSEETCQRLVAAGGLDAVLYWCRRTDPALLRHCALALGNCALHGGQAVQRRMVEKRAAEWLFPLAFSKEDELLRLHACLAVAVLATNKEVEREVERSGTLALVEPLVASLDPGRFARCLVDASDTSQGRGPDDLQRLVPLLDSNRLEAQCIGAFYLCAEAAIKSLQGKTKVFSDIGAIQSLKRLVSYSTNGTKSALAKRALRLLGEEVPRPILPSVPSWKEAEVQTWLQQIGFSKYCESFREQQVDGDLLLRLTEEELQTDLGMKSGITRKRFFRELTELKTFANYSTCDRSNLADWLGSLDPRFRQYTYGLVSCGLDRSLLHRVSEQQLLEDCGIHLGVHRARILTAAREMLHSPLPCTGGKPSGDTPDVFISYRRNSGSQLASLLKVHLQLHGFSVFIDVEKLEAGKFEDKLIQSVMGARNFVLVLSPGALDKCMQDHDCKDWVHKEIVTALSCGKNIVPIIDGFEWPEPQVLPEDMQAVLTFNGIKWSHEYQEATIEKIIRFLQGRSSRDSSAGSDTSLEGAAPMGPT

target: NAD(+) hydrolase SARM1 (Homo sapiens) (UniProt Q6SZW1); experiment: inhibition of SAM-TIR NAD hydrolysis to ADPR – cell lysate, HPLC readout, primary screen (AID 1508615); conditions: HEK293T SAM-TIR lysate, NAD/ADPR ratio by HPLC; at 5 µM; stronger effect = higher value;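 also: substrate NAD at 5 µM with 60 min at 37 °C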

NAD/ADPR ratio, active:
CN(C)c1nc(=Nc2cccc(Cl)c2)ss1 11.3
CCOC(=O)/C(C#N)=C1\SS/C(=C(/C#N)C(=O)OCC)S1 7.9

NAD/ADPR ratio, inactive:
NC(=O)c1ccc(Oc2ccc(C(N)=O)cc2)cc1 3
CCC(C)c1c(N)n(S(=O)(=O)c2ccc(C)cc2)oc1=O (centres undefined) 3
N#CC1C(=O)NC(=O)C(C#N)C12CCCC(C(F)(F)F)C2 (centres undefined) 3
CCCCOc1ccc(NC(=O)Nc2nnc(C)s2)cc1 3
O=C(O)C(Cc1c[nH]c2ccccc12)N1C(=O)c2ccccc2C1=O (centres undefined) 3
CC(C)(C)NC1=NCCNC(c2ccccc2)=C1 3
Clc1cc2c(nn1)Nc1ccccc1S2 3
COc1cc(NC(=O)c2cc3ccccc3cc2O)c(OC)cc1Cl 3
CCOC(=O)c1nc(SC)n(C)c1C(=O)OCC 3
Cc1cc2nc3ccc(=[N+](C)C)cc-3sc2cc1N 3
OC(COc1cccc2ccccc12)CN1CCN(c2ccc(Cl)cc2)CC1 (centres undefined) 3
Nc1nc(N)c2c(ccc3nccc32)[nH]1 3
CCOC(=O)/C(C#N)=C/c1cccc(C)c1 3
Cn1c(=O)c2c(nc(N3CCCCC3)n2C)n(C)c1=O 3
O=C(Cn1nnc(N2CCCCC2)n1)N/N=C/c1ccccc1O 3
Cn1nc(N)c2ncc(C(Cl)(Cl)Cl)nc21 3
O=C(/C=C/c1ccccc1Cl)c1ccc(O)cc1 3
Cc1c2cc[n+](CCN3CCCCC3)cc2c(C)c2c1[nH]c1ccc(O)cc12 3
CC(C)(C)CC(C)(C)n1nnnc1N 3
Oc1cc(-n2cccn2)c(O)cc1-n1cccn1 3
O=[N+]([O-])/C=C/c1cc2ccccc2[nH]1 3
COc1ccc2nccc(/C=C/c3ccnc4ccc(OC)cc34)c2c1 3
O=C(NC(=S)Nc1cccc(O)c1)c1ccco1 3
COc1ccc(NC(=O)CC(C)=O)c(OC)c1 3
c1cc(-n2nnc3cnccc32)ccn1 3
O=C(Nc1ccc(C2=NCCN2)cc1)c1ccc(Cl)c(C(=O)Nc2ccc(C3=NCCN3)cc2)c1 3
Cc1c(COC(=O)NC(C)C)c(COC(=O)NC(C)C)c2n1CS(=O)(=O)C2 3
CCCCOP(=O)(OCCCC)C1(C)CC(=O)CC(C)(C)C1 (centres undefined) 3
CC(=O)Nc1c(C)cc(OCC(=O)O)cc1C 3
O=c1cc2c(=O)oc3cc(O)c(O)oc3c2c(O)c1O 3
NC(=S)Nc1cccc(Cl)c1 3
O=C(Nc1ccc(Cl)c(Cl)c1)Nc1ccccc1O 3
O=C(O)C1CCC(=O)N1C(=O)OCc1ccccc1 (centres undefined) 3
O=[N+]([O-])c1ccc(NN=C(c2ccccc2)c2ccccc2)nc1 2.8
NC(N)=N/N=C/c1c(Cl)cccc1Cl 3
N#C/C(=C\c1ccc(C#N)cc1)C(=O)c1ccccc1 3
CC(NC(=O)c1ccc(Cl)c(Cl)c1)c1ccc(-c2ccccc2)cc1 (centres undefined) 3
CC1=CC(=O)C(C(C)=Nc2ccccc2Cl)C(=O)O1 (centres undefined) 3
Cc1ccc(C)c(N2CCN(c3ccncc3N)CC2)c1 3
OCC1(CO)COC2(CCCC2)N1 3
O=C1CCC(NC(=O)c2ccccc2)C(=O)N1 (centres undefined) 3
Nc1cc(=O)[nH]c2ncnn12 3
N#C/C(=C\c1c[nH]c2ccccc12)C(N)=O 3
NS(=O)(=O)c1ccc(Cl)cc1[N+](=O)[O-] 3
CCn1c2ccccc2c2cc(NC(=O)Nc3ccc([N+](=O)[O-])cc3C)ccc21 3
O=C(O)/C=C/C(=O)Nc1nccs1 3
Nc1ncnc(N2CCOCC2)n1 3
O=C1COc2c1ccc(O)c2O 3
CSc1nc(N)c(C(=O)Nc2ccc([N+](=O)[O-])cc2)s1 3
O=C(Nc1cccc2ccccc12)c1ccccc1 3
CN(C)c1ncnc2c1ncn2-c1ccccc1 3
Nc1ncncc1-c1ccc2ccccc2c1 3
Nc1ccc(NC(=O)Nc2ccc(N)cc2)cc1 3
Nc1ccc(NC(=S)Nc2ccccc2)cc1 3
FC(F)(F)c1nc2nc(Cl)c(Cl)nc2n1CCCN1CCOCC1 3
COc1cc2c(c3c1c(=O)c1cccc(F)c1n3C)C=CC(C)(C)O2 3
COc1ccccc1C1OC2=C(Nc3ccc([N+](=O)[O-])cc3N2)C1=O (centres undefined) 3
COc1ccc(/C(C#N)=C/c2cccnc2)cc1 3
O=C(Cn1ccc(=O)[nH]c1=O)Nc1nccs1 3
CC(C)(C)CC(C)(C)N1CNC(=S)NC1 3
O=C(Nc1csnn1)c1csnn1 3
Cn1[nH]cc(/C=N/C(N)=O)c1=O 3
Nc1ccc2c(c1)Cc1cc(Cl)c(Cl)cc1-2 3
O=C(O)CCNC1CCCCC1 3
NC(=O)c1ccccc1NC(=O)COc1ccc(Cl)cc1 3
S=c1c2[nH]cnc2ncn1CCSc1ncnc2nc[nH]c12 3
O=C(NC(=S)Nc1cc(Cl)ccc1O)c1cccc(Br)c1 3
COC1C(=O)CCC2(CO2)C1(O)C1(C)OC1CC=C(C)C (centres undefined) 3
Cc1cn(C2CC(O)C(CO)O2)c(=O)n(Cc2ccccc2)c1=O (centres undefined) 3
CC(C)(C)n1nc(C2CC2)cc1NC(=O)Nc1ccc(Cl)cc1 3
Cc1cnc2cc(Cl)ccc2c1SCC(=O)O 3
CSc1nc(=S)c2[nH]c(=S)[nH]c2[nH]1 3
CC(C)(C(N)=O)c1ccccc1 3
NC(=NOC(=O)c1ccccc1)C(Cc1ccccc1)C(=O)NOC(=O)c1ccccc1 (centres undefined) 3
CSc1nsc(NN)n1 3
Cc1cc2c(cc1C)N(C(=O)CCl)CC(=O)N2 3
CC1(c2ccccc2)O[C@@H]2C[C@H]3[C@@H]4CCC5=CC(=O)C=C[C@]5(C)[C@@]4(F)[C@@H](O)C[C@]3(C)[C@]2(C(=O)CO)O1 (some centres undefined) 3
NCC(=O)c1cccc2ccc[n+]([O-])c12 3
CC(C)CC(NC(=O)OCc1ccccc1)C(=O)NC(Cc1c[nH]c2ccccc12)C(=O)O (centres undefined) 3
O=c1n(CC2CO2)c(=O)n(CC2CO2)c(=O)n1CC1CO1 (centres undefined) 3
COc1ccccc1/C=C1\Cc2ccccc2C1=O 3
Cc1cc2c(cc1C)NC1=C(N2)OC(c2cccc(O)c2)C1=O (centres undefined) 3
N[C@H](C(=O)O)[C@H]1ON=C(Cl)[C@@H]1O 3
Cc1ccc(NC(=O)NNC(=O)CSC2CCc3ccccc32)c(C)c1 (centres undefined) 3
CC1(C)OC2C(CO)OC(n3cnc4c(=S)nc[nH]c43)C2O1 (centres undefined) 3
O=C1c2ccccc2C(=O)c2c1cccc2-n1nnc2ccccc21 3
C[C@]12CC[C@H](O)CC1=CC[C@@H]1[C@@H]2CC[C@]2(C)c3[nH]ncc3C[C@@H]12 3
Cc1ccc(NC(=O)Nc2cccnc2)cc1NC(=O)Nc1cccnc1 3
C#C[C@]1(O)CC[C@H]2[C@@H]3CCc4cc(OC)ccc4[C@H]3CC[C@@]21C 3
C#CCOCC1CN(c2ccccc2)C(=O)O1 (centres undefined) 3
O=C1c2ccccc2C(=O)C1c1ccccn1 3
OC(c1ccccc1)(c1ccccc1)c1nccn1-c1ccccc1 3
C=CCSc1n[nH]c(-c2cccs2)n1 3
COc1ccc(NC(=O)c2cc3ccc4c5ccccc5[nH]c4c3cc2O)cc1 3
c1ccc2c(c1)-c1cccc3cncc-2c13 3.3
O=C(c1cccnc1)N1CCN(c2ccccc2Cl)CC1 3
S=C1N(c2ccccc2)CN(C2CCCCC2)CN1c1ccccc1 3
N#CC1=CC2CN(Cc3ccccc3)C1C1C(=O)N(c3ccccc3)C(=O)C21 (centres undefined) 3
CC(C)(C)N1CCC1CN (centres undefined) 3
Cc1nc2ccccc2nc1N1CCCC1 3
COc1cc(C(=O)OC(C)CN2CCOCC2)cc(OC)c1OC (centres undefined) 3
O=S(=O)(O)c1ccc(N=Nc2ccccc2)cc1 3
CN=C1C=C/C(=N/N=c2\ccn(O)cc2C)C=C1C 3
CN(C)S(=O)(=O)c1ccccc1N=C=S 3
NCCN1CCNCC1 3
C=CCOC(=O)/C=C/C(=O)NC(N)=O 3
O=c1c(-c2ccc(O)cc2)coc2cc(O)cc(O)c12 3
Cc1cc(NC(=O)c2ccccc2)nc(C)n1 3
c1ccc(-c2cc3ccccc3[nH]2)cc1 3
CC1=CN2C(c3cccc([N+](=O)[O-])c3)=NON(c3ccc(C)cn3)C2C=C1 (centres undefined) 3
Cc1ccc(S(=O)(=O)NC(=O)Nc2nccs2)cc1 3
Nc1ccc(N=Nc2ccccc2Cl)c(N)n1 3
COc1ccc(C(=O)O)nc1C 3
Brc1ccc(-c2csc(Nc3nc(-c4ccc(Br)cc4)cs3)n2)cc1 3
C=CCNC(=S)Nc1c(N)n(C)c(=O)n(C)c1=O 3
Oc1ccccc1Nc1ccccn1 3
O=C(Nc1ccc2ccccc2c1)c1cccc(F)c1 3

Part of the list above in order of SMILES length, smallest number first:
NAD/ADPR ratio, inactive:
CSc1nsc(NN)n1 3
O=C(Nc1cccc2ccccc12)c1ccccc1 3
O=C(Cn1ccc(=O)[nH]c1=O)Nc1nccs1 3
Cn1c(=O)c2c(nc(N3CCCCC3)n2C)n(C)c1=O 3
S=c1c2[nH]cnc2ncn1CCSc1ncnc2nc[nH]c12 3

Nothing new here: entries from further up.
NAD/ADPR ratio, inactive:
FC(F)(F)c1nc2nc(Cl)c(Cl)nc2n1CCCN1CCOCC1 3
COc1cc2c(c3c1c(=O)c1cccc(F)c1n3C)C=CC(C)(C)O2 3

3 compounds drawn at random from those above, as already listed:
NAD/ADPR ratio, inactive:
CCn1c2ccccc2c2cc(NC(=O)Nc3ccc([N+](=O)[O-])cc3C)ccc21 3
COc1ccc(NC(=O)c2cc3ccc4c5ccccc5[nH]c4c3cc2O)cc1 3
COc1cc(C(=O)OC(C)CN2CCOCC2)cc(OC)c1OC (centres undefined) 3
